Drawing on article PMC3840065, “Structural Insights into the Mechanism for Recognizing Substrate of the Cytochrome P450 Enzyme TxtE” (PLoS ONE, 2013), this text covers binding for one molecule.

No constants are given. Whether binding was seen depends on the method and setting. Tags and fused reporters may be left off the sequences shown.

The target in this assay is TxtE, cytochrome P450 enzyme from Streptomyces scabies 87.22 (wild type) (Streptomyces scabies 87.22) (UniProt C9ZDC6). The assay is described as follows: SEC; gel filtration; conditions not told for this result (the purification used Superdex 75 16/60 in 25 mM Tris-HCl pH 8.0, 150 mM NaCl, 5% glycerol); both purified.

B1: TxtE, cytochrome P450 enzyme from Streptomyces scabies 87.22 (wild type) (enzyme, UniProt C9ZDC6 1-406)
chain: MTVPSPLADPSIVPDPYPVYADLAQRRPVHWVERLNAWAVLTYADCAAGLKDPRLTADRGTEVLAAKFPGQPLPPDNIFHRWTKNVVMYTDPPLHDALRRSVRAGFTRAAHQHYDQVLQKVAHDLVASIPAGATEIDAVPALAAELPVRSAVHAFGVPEEDLGFLIPRVNTIMTYHSGPKDQPVTQEIILEKLTDLHTYASELLQGMRGKVLPDTVIARLAAAQDGLTETTPEQTVHQLALVFIALFAPTTPGSLSSGTLAFARNPRQVERFLADQACVDNTANEVLRYNASNQFTWRVAAKDVEMGGVRIEAGQTLALFLGSANRDANMFERPNDFDLDRPNSARHLSFGQGVHACLAAQLISLQLKWFYVALLNRFPGIRTAGEPIWNENLEFRSLRSLPLSLR
Regarding B1, the binding result is on record as “no binding”.
